# Values quoted from earlier work in patent US6929811B2, “Monoamine oxidase (MAO) inhibitors and uses thereof” (priority 1998, dated 2005).
# At least one structure is not confirmed: it was looked up by name or label, or the drawing left a doubt.
# Tested on: MPTP induced toxicity
# Settings: mice, cited from earlier work
compound,measurement,setting,value
NN [hydrazine],effect on dopamine levels,MPTP,no significant effect on dopamine levels
same,effect on decrease in dopamine metabolite levels induced by MPTP,,prevented the decrease in dopamine metabolite levels
